# Laboratory results from the supplement of paper PMC10032668.
# Chains of the proteins cited; added tags and fusions are not shown.
# HNRNPU, Q00839, UniProt Q00839, whole entry: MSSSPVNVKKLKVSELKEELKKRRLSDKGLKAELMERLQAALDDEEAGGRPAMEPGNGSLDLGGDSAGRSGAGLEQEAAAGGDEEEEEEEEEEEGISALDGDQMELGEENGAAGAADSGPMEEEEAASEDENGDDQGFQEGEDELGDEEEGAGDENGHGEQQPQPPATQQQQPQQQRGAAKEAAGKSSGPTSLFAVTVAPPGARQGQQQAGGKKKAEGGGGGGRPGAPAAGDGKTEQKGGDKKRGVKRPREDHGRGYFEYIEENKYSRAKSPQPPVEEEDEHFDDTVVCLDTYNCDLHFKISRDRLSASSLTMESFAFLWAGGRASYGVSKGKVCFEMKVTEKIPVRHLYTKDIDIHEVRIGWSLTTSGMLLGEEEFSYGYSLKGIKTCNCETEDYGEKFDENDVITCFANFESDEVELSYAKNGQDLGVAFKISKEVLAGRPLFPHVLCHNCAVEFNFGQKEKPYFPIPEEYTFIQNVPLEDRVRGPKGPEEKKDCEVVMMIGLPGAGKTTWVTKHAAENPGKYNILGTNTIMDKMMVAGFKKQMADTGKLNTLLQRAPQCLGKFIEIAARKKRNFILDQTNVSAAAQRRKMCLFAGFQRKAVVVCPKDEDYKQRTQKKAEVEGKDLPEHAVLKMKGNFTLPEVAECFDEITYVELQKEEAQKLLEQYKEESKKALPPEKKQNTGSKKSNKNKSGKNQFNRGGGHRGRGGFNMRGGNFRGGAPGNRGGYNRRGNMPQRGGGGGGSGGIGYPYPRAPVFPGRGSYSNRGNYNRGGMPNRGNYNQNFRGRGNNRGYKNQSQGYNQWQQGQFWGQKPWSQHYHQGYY
# TF, P02787, UniProt P02787, whole entry: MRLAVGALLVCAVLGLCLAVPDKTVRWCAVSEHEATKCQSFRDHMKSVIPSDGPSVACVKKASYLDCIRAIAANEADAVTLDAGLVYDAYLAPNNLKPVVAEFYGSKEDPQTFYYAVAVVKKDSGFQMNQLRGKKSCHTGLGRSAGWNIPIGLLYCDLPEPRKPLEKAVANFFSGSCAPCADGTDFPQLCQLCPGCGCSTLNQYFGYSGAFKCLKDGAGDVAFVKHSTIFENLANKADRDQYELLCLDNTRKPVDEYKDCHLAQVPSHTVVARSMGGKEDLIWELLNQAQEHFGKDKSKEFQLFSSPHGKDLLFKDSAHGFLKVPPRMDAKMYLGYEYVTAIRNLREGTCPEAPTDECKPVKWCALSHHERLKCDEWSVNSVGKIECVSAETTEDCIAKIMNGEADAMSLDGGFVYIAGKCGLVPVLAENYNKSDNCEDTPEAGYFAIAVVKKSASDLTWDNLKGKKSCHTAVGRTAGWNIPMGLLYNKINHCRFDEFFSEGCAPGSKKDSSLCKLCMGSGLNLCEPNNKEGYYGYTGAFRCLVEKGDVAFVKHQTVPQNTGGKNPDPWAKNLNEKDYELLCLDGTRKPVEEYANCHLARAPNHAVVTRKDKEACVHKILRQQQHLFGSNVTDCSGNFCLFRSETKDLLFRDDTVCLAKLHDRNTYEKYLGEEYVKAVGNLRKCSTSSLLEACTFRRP
# TRAPPC5, Q8IUR0, UniProt Q8IUR0, whole entry: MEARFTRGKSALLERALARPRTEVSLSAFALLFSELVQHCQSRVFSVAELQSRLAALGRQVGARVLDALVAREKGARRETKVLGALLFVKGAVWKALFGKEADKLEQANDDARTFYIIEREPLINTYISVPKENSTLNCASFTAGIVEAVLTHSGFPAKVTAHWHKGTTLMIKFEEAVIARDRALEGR
# Some of the results follow. The list holds hits alone, and they repeat only in part.
# Columns and labels:
# Assay in all cases: PRISMA enrichment of interactor (LFQ) in peptide spot vs all other peptide spots (log2 fold change); higher = stronger / more specific binding of the interactor to the peptide
# ATP5PF, P18859 = biological target: ATP5PF, P18859
# Method: (§1)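 PRISMA: 15-aa overlapping tiles (offset 8 aa) of 60 microproteins, plus SOS1/GLUT1 control peptides, were spot-synthesized on cellulose membranes in triplicate. Membranes were incubated with benzonase-treated HEK293T lysate, and bound proteins were identified by LC-MS/MS with LFQ. Enrichment is the log2 fold change of each protein in one spot versus all other spots. Only interactors passing the significance cutoff are listed.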
# BYSL, Q13895 = biological target: BYSL, Q13895
# Method: as §1
# CALU, O43852 = biological target: CALU, O43852
# Method: as §1
# CHCHD2, Q9Y6H1 = biological target: CHCHD2, Q9Y6H1
# Method: as §1
# DDX56, Q9NY93 = biological target: DDX56, Q9NY93
# Method: as §1
# ECHS1, P30084 = biological target: ECHS1, P30084
# Method: as §1
# EIF5B, O60841 = biological target: EIF5B, O60841
# Method: as §1
# HAT1, O14929 = biological target: HAT1, O14929
# Method: as §1
# HERC5, Q9UII4 = biological target: HERC5, Q9UII4
# Method: as §1
# HNRNPU, Q00839 = biological target: HNRNPU, Q00839
# Method: as §1
# MKI67, P46013 = biological target: MKI67, P46013
# Method: as §1
# MTDH, Q86UE4 = biological target: MTDH, Q86UE4
# Method: as §1
# NMD3, Q96D46 = biological target: NMD3, Q96D46
# Method: as §1
# OGFR, Q9NZT2 = biological target: OGFR, Q9NZT2
# Method: as §1
# RAE1, P78406 = biological target: RAE1, P78406
# Method: as §1
# TF, P02787 = biological target: TF, P02787
# Method: as §1
# TRAPPC5, Q8IUR0 = biological target: TRAPPC5, Q8IUR0
# Method: as §1
# VCP, P55072 = biological target: VCP, P55072
# Method: as §1
binder,measurement,setting,value
EHGHHKMELPDYRQW [NDUFB3],PRISMA enrichment of interactor (log2),"ATP5PF, P18859",6.09
same,PRISMA enrichment of interactor (log2),"BYSL, Q13895",4.39
same,PRISMA enrichment of interactor (log2),"CALU, O43852",5.78
same,PRISMA enrichment of interactor (log2),"CHCHD2, Q9Y6H1",4.63
same,PRISMA enrichment of interactor (log2),"DDX56, Q9NY93",4.51
same,PRISMA enrichment of interactor (log2),"ECHS1, P30084",4.74
same,PRISMA enrichment of interactor (log2),"EIF5B, O60841",5.07
same,PRISMA enrichment of interactor (log2),"HAT1, O14929",4.23
same,PRISMA enrichment of interactor (log2),"HERC5, Q9UII4",4.59
same,PRISMA enrichment of interactor (log2),"HNRNPU, Q00839",4.24
same,PRISMA enrichment of interactor (log2),"MKI67, P46013",5.64
same,PRISMA enrichment of interactor (log2),"MTDH, Q86UE4",6.14
same,PRISMA enrichment of interactor (log2),"NMD3, Q96D46",6.37
same,PRISMA enrichment of interactor (log2),"OGFR, Q9NZT2",4.48
same,PRISMA enrichment of interactor (log2),"RAE1, P78406",5.88
same,PRISMA enrichment of interactor (log2),"TF, P02787",5.49
same,PRISMA enrichment of interactor (log2),"TRAPPC5, Q8IUR0",8.36
same,PRISMA enrichment of interactor (log2),"VCP, P55072",6.18
